Experimental data taken from patent US20170266266A1, “Functions of 55 Newfound Proteins and Their Medicinal Application in the Treatment and Prevention of Disease” (priority 2012, published 2017).
For at least one compound, name, drawing or mass did not settle the structure.

System: adjuvant-induced arthritis
Assay: Adjuvant-Induced Arthritis (AIA) in Lewis rats

C[C@@H]1C[C@H]2[C@@H]3CCC4=CC(=O)C=C[C@]4(C)[C@@]3(F)[C@@H](O)C[C@]2(C)[C@@]1(O)C(=O)CO [Dex, Dexamethasone]
arthritic score (rat, in vivo): significantly inhibited the disease development | paw volume (paw swelling) vs saline group (right hind paw): significantly lower than saline group, from day 14
